Reference: paper PMC6831303
Construct, isoform or probe ends are uncertain for at least one entry. Results from cells or extracts need not show a direct contact. Negatives hold for the conditions tested. At least one verdict was read from the data and is not stated in words by the source.

The chains behind the UniProt entries cited, without tags or fusion partners.
UniProt P70372, whole entry: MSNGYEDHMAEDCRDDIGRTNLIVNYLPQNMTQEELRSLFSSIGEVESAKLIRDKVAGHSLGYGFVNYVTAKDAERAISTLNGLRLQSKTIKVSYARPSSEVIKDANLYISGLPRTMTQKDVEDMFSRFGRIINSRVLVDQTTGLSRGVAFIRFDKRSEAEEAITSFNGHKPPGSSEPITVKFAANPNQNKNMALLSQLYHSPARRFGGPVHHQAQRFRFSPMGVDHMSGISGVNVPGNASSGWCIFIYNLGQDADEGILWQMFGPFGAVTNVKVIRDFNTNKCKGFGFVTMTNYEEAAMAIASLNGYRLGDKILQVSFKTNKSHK

target: HuR (ELAVL1) (mouse) (UniProt P70372); assay: EMSA (nuclear extract); conditions: no shift with extract; LightShift Chemiluminescent RNA EMSA kit, REMSA binding buffer, 10 pM biotin-RNA probe, fibroblast nuclear extract, 6% polyacrylamide …; protein in an extract

Q: Does “AAGUUUAUAUACAAAGAAUAUAAUGUUUAU [Safe probe 1F single strand]” bind?
A: Result: no binding

Q: Does “CUACAAUGAUUUAGUUUGCAAAAAAAAUGA [Safe probe 2F single strand]” bind?
A: Result: no binding

Q: Does “UGAAUUAAAAGAUGUUUUAAACAAAGCUUA [Safe probe 3F single strand]” bind?
A: Result: no binding

same assay, conditions: no stable interaction with extract; LightShift Chemiluminescent RNA EMSA kit, REMSA binding buffer, 10 pM biotin-RNA probe, fibroblast nuclear extract, 6% polyacrylamide gel; protein in an …

Q: Does “AAGUUUAUAUACAAAGAAUAUAAUGUUUAU / AUAAACAUUAUAUUCUUUGUAUAUAAACUU [Safe probe 1F/1R duplex]” bind?
A: Result: no binding

Q: Does “CUACAAUGAUUUAGUUUGCAAAAAAAAUGA / UCAUUUUUUUUGCAAACUAAAUCAUUGUAG [Safe probe 2F/2R duplex]” bind?
A: Result: no binding

Q: Does “UGAAUUAAAAGAUGUUUUAAACAAAGCUUA / UAAGCUUUGUUUAAAACAUCUUUUAAUUCA [Safe probe 3F/3R duplex]” bind?
A: Result: no binding
